Measurements: patent US4315032A, “Process for preparation of adjacently disubstituted ketones” (Teitin Limited, priority 1979, dated 1982)
At least one structure is not confirmed: it was looked up by name or label, or the drawing left a doubt.

Tested on: ulcer formation induced by indomethacin
Experiment: inhibiting action on the formation of ulcer in rats induced by indomethacin
Format: in vivo, Male rats (Sprague Dawley species)
Method: By the method of Y. H. Lee et al. [Arch. Int. Pharmacodyn. Ther., 192, 370 (1971)], the inhibiting action of the compound No. 122 in Example 11 and compound No. 158 in Example 21 on the formation of ulcer in rats induced by indomethacin, a typical non-steroid anti-inflammatory agent, was evaluated.
Male rats (Sprague Dawley species; body weight 240-270 g) were used in the experiment. These rats had been caused to fast for 24 hours in separate cages before the initiation of the experiment. Indomethacin was orally administered to these rats, and 6 hours later, they were killed. Formation of ulcer in the fundus part was examined by measuring the area of the ulcer-forming part under a microscope. The compounds Nos. 122 and 158 were each subcutaneously administered at the end of 30 minutes and 2 hours, respectively, after the administration of indomethacin. The ulcer formation inhibiting rate of these compounds against a predetermined dose of indomethacin was determined.
The indomethacin was administered as a 0.5 ml aqueous suspension (containing two drops of a Tween-type nonionic surfactant per 14 ml of water). The compounds Nos. 122 and 158 were given in the form of a solution in a phosphate buffer (pH 7.4).

Row | SMILES | inhibition of ulcer formation (in words)
1 | CCCCCC(O)/C=C/C1C(O)CC(=O)C1C(O)CCCCCC(=O)OC (stereo not drawn) [No. 122, 2-(1-hydroxy-7-keto-8-oxanonyl)-3-(3-hydroxy-1-trans-octenyl)-4-hydroxycyclopentanone] | inhibited ulcer formation
2 | CCCCC[C@H](O)/C=C/C1C(C(O)CCCCCC(=O)OC)C(=O)C[C@H]1O (stereo partly drawn) [No. 158, 2-(1-hydroxy-7-keto-8-oxanonyl)-3-[3(S)-hydroxy-1-trans-octenyl]-4(R)-hydroxycyclopentanone] | inhibited ulcer formation
